# Data published in patent publication US9650674B2, “Nucleic acid probes and methods of using the same” (Board of Trustees University of Arkansas, priority 2012, dated 2017).
# Some results were stated once for a whole list of compounds, not compound by compound. {Cy5.5} = Cy5.5 cyanine dye label
# Molecular target: T1, DNase I (Homo sapiens, UniProt P24855)
# T1 construct: purchased Sigma (St. Louis, Mo.)
# T1 sequence (P24855 23-282): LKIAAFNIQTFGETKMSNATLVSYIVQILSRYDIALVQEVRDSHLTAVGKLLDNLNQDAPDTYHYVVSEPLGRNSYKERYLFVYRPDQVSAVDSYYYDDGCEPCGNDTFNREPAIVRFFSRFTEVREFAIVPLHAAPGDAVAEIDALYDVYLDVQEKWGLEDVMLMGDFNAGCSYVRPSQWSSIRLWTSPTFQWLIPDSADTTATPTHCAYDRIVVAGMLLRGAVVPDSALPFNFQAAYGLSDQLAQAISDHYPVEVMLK
# Experiment: Kinetic fluorescence of probes exposed to DNase I in vitro
# Assay type: biochemical
# Settings: probe 0.5 μM, DNase I 1 μg/ml
# Procedure: It was hypothesized that exposure of the probes to endonucleases would lead to DNA cleavage and dissociation of protruded strand from the hairpin (FIG. 2A). To assess which of the proposed probes is the best to measure endonuclease activity, the probes (0.5 μM) were exposed with recombinant human DNase I (1 μg/ml) and the kinetic fluorescence curves were recorded. Twenty min into the reaction, AB259.1, AB259.3 and AB259.5 gained 1.75-, 2.6- and 1.62-fold fluorescence, respectively, compared to the baseline (FIG. 2B). At 20-25 min, AB259.1 and AB259.3 reached the plateaus. […] Therefore, AB259.3 was chosen for further experiments. […]
# All cell-free experiments were performed using the Bio-Tek Synergy 5 fluorescent plate reader. Before experiments, optimal excitation and emission wavelengths were determined. […] The optimal excitation/emission was determined to be 665/703 nm. […] After measurement of starting fluorescence, DNase I or tested material (diluted 1:20 urine or 1:100 serum) were added to the reconstituted probe, rapidly mixed and fluorescence was monitored for up to 60 min with 30-sec intervals. […] For the experiments that involved assessment of fluorescence after DNA denaturing, probes were tested in Cepheid real-time PCR system using Cy5 setting (Sunnyvale, Calif.).
substance,measurement,value
"[Cy5.5]AACACTCCGATGAGTGTAGAATGT[Cy5.5] (DNA, 5' {Cy5.5}, 3' {Cy5.5}, backbone not given here) [AB259.3, hairpin DNA probe with Cy5.5 at both ends, protruding strand +5]",time at which fluorescence reached plateau,20 to 25 min
"[Cy5.5]AACACTCCGATGAGTGTA[Cy5.5] (DNA, 5' {Cy5.5}, 3' {Cy5.5}, backbone not given here; hairpin DNA probe) [AB259.1, hairpin DNA probe with Cy5.5 at both ends, protruding strand +0]",time at which fluorescence reached plateau,20 to 25 min
